These are yes or no findings as the source states them, for the method shown. Binding seen in cells or lysates may run through a third protein.
Columns and labels:
[1] = biological target: growth-associated protein GAP-43 (mouse (endogenous in N1E-115)) (UniProt P06837); test: cross-linking + co-IP; 1 mM DSP on living cells, SDS lysis, 100,000 × g supernatant; rabbit polyclonal anti-GAP-43 and protein A-agarose; two-dimensional gel
[2] = biological target: growth-associated protein GAP-43 (mouse (endogenous in N1E-115)) (UniProt P06837); test: cross-linking + co-IP; DMSO or 1 mM DSP on living cells; lysis in NP-40 substitute buffer; nuclei, cytoskeleton and membrane skeleton removed by centrifugation; anti-GAP-43 immunoprecipitation from the 100,000 × g supernatant; two-dimensional gel
[3] = biological target: growth-associated protein GAP-43 (mouse (endogenous in N1E-115)) (UniProt P06837); test: cross-linking + co-IP; cells lysed in 1% NP-40 substitute buffer first; 1 mM DSP added to the low-speed supernatant (15 min, room temperature); glycine and SDS added; 100,000 × g supernatant; monoclonal anti-GAP-43; two-dimensional gel; spots counted, calmodulin cpm divided by 9/4
[4] = biological target: growth-associated protein GAP-43 (mouse (endogenous in N1E-115)) (UniProt P06837); test: cross-linking + co-IP; 1 mM DSP added to living [35S]-labeled differentiated N1E-115 cells (15 min, room temperature, KRH); lysis in SDS, then NP-40 lysis buffer; 100,000 × g supernatant; monoclonal anti-GAP-43 (clone 91E12) and protein G plus agarose; crosslinks cleaved; two-dimensional gel, fluorography; spots cut out and counted, calmodulin cpm divided by 9/4

Amino acid sequences for entries named in this document (tags omitted). A change or cut given only in a name is not applied to a line headed by its entry.
UniProt P06837: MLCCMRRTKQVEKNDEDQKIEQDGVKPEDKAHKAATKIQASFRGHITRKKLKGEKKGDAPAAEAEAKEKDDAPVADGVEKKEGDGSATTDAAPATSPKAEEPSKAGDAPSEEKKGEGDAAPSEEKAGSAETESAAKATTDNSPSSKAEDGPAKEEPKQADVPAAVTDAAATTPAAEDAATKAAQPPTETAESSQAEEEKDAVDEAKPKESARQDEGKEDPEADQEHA
UniProt P60879: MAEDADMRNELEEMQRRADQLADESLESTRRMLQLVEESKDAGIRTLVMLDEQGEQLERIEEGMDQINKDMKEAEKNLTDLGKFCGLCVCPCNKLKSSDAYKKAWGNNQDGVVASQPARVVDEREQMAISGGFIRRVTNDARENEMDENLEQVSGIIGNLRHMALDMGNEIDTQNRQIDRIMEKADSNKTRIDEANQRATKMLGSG

Measured: binding

synaptosomal associated protein SNAP-25 (from UniProt P60879 1-206)
no binding: all assays above

B1: Rab5 effector protein rabaptin-5 (protein, UniProt O35551 1-862)
chain: MAQPGPAPQPDVSLQQRVAELEKINAEFLRAQQQLEQEFNQKRAKFKELYLAKEEDLKRQNAVLQAAQDDLGHLRTQLWEAQAEMENIKAIATVSENTKQEAIDEVKRQWREEVASLQAIMKETVRDYEHQFHLRLEQERAQWAQYRESAEREIADLRRRLSEGQEEENLENEMKKAQEDAEKLRSVVMPMEKEIAALKDKLTEAEDKIKELEASKVKELNHYLEAEKSCRTDLEMYVAVLNTQKSVLQEDAEKLRKELHEVCHLLEQERQQHNQLKHTWQKANDQFLESQRLLMRDMQRMEIVLTSEQLRQVEELKKKDQEEDEQQRVNKRKDNKKTDTEEEVKIPVVCALTQEESSTPLSNEEEHLDSTHGSVHSLDADLMLPSGDPFSKSDNDMFKDGLRRAQSTDSLGTSSSLQSKALGYNYKAKSAGNLDESDFGPLVGADSVSENFDTVSLGSLQMPSGFMLTKDQERAIKAMTPEQEETASLLSSVTQGMESAYVSPSGYRLVSETEWNLLQKEVHNAGNKLGRRCDMCSNYEKQLQGIQIQEAETRDQVKKLQLMLRQANDQLEKTMKEKQELEDFLKQSAEDSSHQISALVLRAQASEVLLEELQQSFSQAKRDVQEQMAVLMQSREQVSEELVRLQKDNDSLQGKHSLHVSLQLAEDFILPDTVEVLRELVLKYRENIVHVRTAADHMEEKLKAEILFLKEQIQAEQCLKENLEETLQLEIENCKEEIASISSLKAELERIKVEKGQLESTLREKSQQLESLQEMKVNLEEQLKKETAAKATVEQLMFEEKNKAQRLQTELDVSEQVQRDFVKLSQTLQVQLERIRQADSLERIRAILNDTKLTDINQLPET
no binding: all assays above
